These are yes or no findings as the source states them, for the method shown. Some entries that bind do so weakly or less than the wild type. One block for each substance: values may come before it.
Key:
[1] = biological target: CD40/Fc fusion protein (human) (UniProt P25942); assay: solid phase assay with CD40Fc
[2] = biological target: membrane-bound murine CD40-L (murine) (UniProt P27548); assay: slide autoradiography, 125I-CD40/Fc on CV1-EBNA cells transfected with murine CD40-L clones
[3] = biological target: CD40/Fc fusion protein (human) (UniProt P25942); assay: CD40Fc receptor binding assay, crude supernatants

By UniProt entry, the sequences of proteins in these tests, tags left out. Where a name states a change or a piece, a line headed by the entry shows the natural chain unless it says otherwise.
UniProt P27548: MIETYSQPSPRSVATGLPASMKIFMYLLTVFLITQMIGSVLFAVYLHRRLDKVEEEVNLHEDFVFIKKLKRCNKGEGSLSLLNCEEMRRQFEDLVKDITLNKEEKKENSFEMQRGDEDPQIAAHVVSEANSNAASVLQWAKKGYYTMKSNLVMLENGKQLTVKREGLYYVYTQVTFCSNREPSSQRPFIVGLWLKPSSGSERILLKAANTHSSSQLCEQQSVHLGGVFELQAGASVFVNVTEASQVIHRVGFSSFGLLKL

binding [1]: binds
Substance: monomeric murine CD40-L with Flag (from UniProt P27548 119-260) (ligand)

binding [2]: binds
Substance: CD40/Fc fusion protein (from UniProt P25942 21-193)

binding [3]: binds
Substance: monomeric murine CD40-L without amino terminal Flag (from UniProt P27548 112-260) (ligand)

— US20030091564A1
